Source: article PMC9613664
Results are given in words; binding and its absence hold for the method and conditions named. In cells and extracts the contact can be indirect. Some results given as binding are weak or reduced against the parent protein; the word gives no strength.

The chains behind the UniProt entries cited, without tags or fusion partners.
UniProt Q13950: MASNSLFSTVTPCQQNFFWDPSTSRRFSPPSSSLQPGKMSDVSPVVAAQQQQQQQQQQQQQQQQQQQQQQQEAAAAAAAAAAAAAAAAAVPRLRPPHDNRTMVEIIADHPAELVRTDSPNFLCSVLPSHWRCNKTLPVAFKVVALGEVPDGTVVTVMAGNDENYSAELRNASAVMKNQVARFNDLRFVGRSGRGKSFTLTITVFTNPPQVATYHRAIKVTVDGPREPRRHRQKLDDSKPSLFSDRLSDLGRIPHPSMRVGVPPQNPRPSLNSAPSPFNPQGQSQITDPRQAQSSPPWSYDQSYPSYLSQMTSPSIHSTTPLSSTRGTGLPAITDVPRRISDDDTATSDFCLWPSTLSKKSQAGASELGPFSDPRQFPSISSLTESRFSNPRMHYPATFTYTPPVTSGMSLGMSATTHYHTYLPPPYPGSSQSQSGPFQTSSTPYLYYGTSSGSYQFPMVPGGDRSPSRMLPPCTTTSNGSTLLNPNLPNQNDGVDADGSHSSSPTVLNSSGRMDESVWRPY
UniProt Q13620: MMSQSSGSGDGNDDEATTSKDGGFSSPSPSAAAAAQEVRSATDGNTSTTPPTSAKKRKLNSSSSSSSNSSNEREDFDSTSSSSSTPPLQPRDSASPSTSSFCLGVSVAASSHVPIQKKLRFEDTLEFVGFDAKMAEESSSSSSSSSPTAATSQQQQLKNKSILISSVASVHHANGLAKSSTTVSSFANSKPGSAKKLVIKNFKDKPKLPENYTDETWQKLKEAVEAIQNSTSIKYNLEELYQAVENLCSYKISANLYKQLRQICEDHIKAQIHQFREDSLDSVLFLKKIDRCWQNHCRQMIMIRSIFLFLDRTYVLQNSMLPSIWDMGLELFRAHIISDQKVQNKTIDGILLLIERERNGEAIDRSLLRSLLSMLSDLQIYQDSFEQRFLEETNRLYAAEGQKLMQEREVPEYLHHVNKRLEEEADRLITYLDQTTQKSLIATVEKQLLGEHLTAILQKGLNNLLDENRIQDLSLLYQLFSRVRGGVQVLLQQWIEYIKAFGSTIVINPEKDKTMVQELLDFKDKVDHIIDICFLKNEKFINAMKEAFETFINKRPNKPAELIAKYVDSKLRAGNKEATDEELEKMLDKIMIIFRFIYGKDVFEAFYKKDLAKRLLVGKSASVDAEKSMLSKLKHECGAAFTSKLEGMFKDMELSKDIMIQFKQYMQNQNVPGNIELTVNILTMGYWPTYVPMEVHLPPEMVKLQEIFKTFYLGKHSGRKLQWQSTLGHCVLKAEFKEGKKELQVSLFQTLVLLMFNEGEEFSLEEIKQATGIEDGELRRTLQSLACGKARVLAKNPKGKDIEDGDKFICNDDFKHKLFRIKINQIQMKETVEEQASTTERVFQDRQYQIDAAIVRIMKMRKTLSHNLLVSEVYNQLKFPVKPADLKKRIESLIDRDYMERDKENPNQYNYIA

Target: RUNX2 (endogenous) (human (endogenous in breast cancer cells, line not named)) (UniProt Q13950)
Assay: co-IP; endogenous proteins; cell extracts incubated with 2 ug antibody or normal IgG at 4 C overnight, protein A/G beads, five washes with lysis buffer, immunoblot; done with anti-RUNX2 and in reverse with antibodies against the partners

- binding: binds
Substance: CUL4B (endogenous) (from UniProt Q13620 1-913)
